Results on 78 compounds are retold here after article PMC12040169 (PLOS Biology, 2025).

This is one part of the list.

The test system of this test is T1, CTL2-GFP (C. trachomatis L2/434/Bu, GFP-expressing).
T1 construct: L2/434/Bu, GFP-expressing
The arrangement: species or system HeLa; Intracellular C. trachomatis growth in HeLa cells, bulk GFP fluorescence relative to DMSO. The settings on record: bulk GFP, single well; 28.5 h, 10 µM; inhibitor.
Consider `CC(C)(C)OC(=O)NCc1ccc(-c2cc(N3CCN(C(=O)c4ccco4)CC3)ncn2)cc1` [CBK091107], for which the “% of control remaining” value is given as 198.586%.

As to `Cc1ccnc2nc(C(=O)Nc3ccc4c(c3)CCC4)nn12` [CBK295194], the “% of control remaining” value was 175.042%.

`COc1ccc(C)cc1S(=O)(=O)N(CC(=O)Nc1ccccc1C)c1ccc(Cl)cc1` [CBK267995]: the “% of control remaining” value was found to be 89.5795%.

`COc1ccc2c(CC(=O)Nc3cccc(-c4csc(C)n4)c3)coc2c1` [CBK295149]: the “% of control remaining” value worked out at 133.796%.

For the compound `CCCc1cc(C2CCCCCN2C(=O)c2cccnc2)no1` (stereo not drawn) [CBK282987], the “% of control remaining” value came to 121.592%.

Take `Cc1nnnn1-c1cc(NC(=O)NCCCn2ccnc2)ccc1F` [CBK305349]: the “% of control remaining” value came out at 142.866%.

Regarding `Sc1nnc(CSCc2ccccc2Cl)n1-c1ccccc1` [CBK265219], the “% of control remaining” value turned out to be 115.052%.

As to `Nc1ccc(-c2nc(-c3ccccc3)c3cc(-c4ccc5nc(-c6ccc(N)cc6)nc(-c6ccccc6)c5c4)ccc3n2)cc1` [CBK261152], the “% of control remaining” value was 97.1807%.

In the case of `COc1ccccc1CC(=O)NCc1nc(-c2cccc(C)c2)no1` [CBK269336], the “% of control remaining” value came to 124.036%.

On to `Cn1c(COc2cccc3cccnc23)nnc1SCC(=O)O` [CBK300505], for which the “% of control remaining” value worked out at 107.275%.

For the compound `COc1ccc([C@@]23CC[C@@H](NC(=O)Nc4cccc(C(F)(F)F)c4F)C[C@@H]2CN(C)C3)cc1OC` [CBK063195A], the “% of control remaining” value stood at 116.7%.

Take `COc1ccccc1NC(=O)CNC(=O)c1ccc([N+](=O)[O-])cc1` [CBK268657]: the “% of control remaining” value is recorded as 137.903%.

On to `C[C@H](Nc1cncc(-c2ccc(F)cc2F)n1)c1ccccc1` [CBK065684], for which the “% of control remaining” value is 99.2416%.

Take `Cc1nc(C2CN(Cc3ccc(Cl)c4cccnc34)CCO2)no1` (stereo not drawn) [CBK305384]: the “% of control remaining” value amounted to 95.7998%.

Consider `COCCn1cnnc1CN(C)C(=O)NC(C)c1nc2ccccc2[nH]1` (stereo not drawn) [CBK307155], for which the “% of control remaining” value is recorded as 141.427%.

Turning to `CN(C)c1ccc(CNC(=O)Cn2nc(C(=O)O)c3ccccc3c2=O)cc1` [CBK295330], the “% of control remaining” value turned out to be 140.102%.

In the case of `Cc1ccc(C2CC(=O)C(=CNCCN3CCN(C(=S)Nc4ccccc4)CC3)C(=O)C2)cc1` (stereo not drawn) [CBK263665], the “% of control remaining” value is on record as 100.737%.

As to `O=C(Nc1ccc2oc(-c3cccnc3)nc2c1)c1ccc(-c2ccccc2OC(F)(F)F)o1` [CBK263872], the “% of control remaining” value came out at 104.585%.

In the case of `S=c1[nH]ccn1Cc1cccs1` [CBK008454], the “% of control remaining” value turned out to be 124.967%.

`Cc1nc2c(c(=O)[nH]1)CN(C1CCCCC1)CC2` [CBK282416]: the “% of control remaining” value turned out to be 128.171%.

`CCc1c(C)nc2n(c1=O)C(CS(=O)(=O)c1ccccc1)CS2` (stereo not drawn) [CBK268949]: the “% of control remaining” value is listed as 137.978%.

In the case of `Cn1cncc1CN(Cc1ccccn1)Cc1ccccc1Cl` [CBK282129], the “% of control remaining” value was 98.7849%.

On to `Cc1ccc(C(=O)NCc2cccnc2N(C)C2CCCCC2)cn1` [CBK306514], for which the “% of control remaining” value was found to be 102.561%.

Consider `COc1ccc(-c2c(-c3ccc(OCc4cnn(-c5ccccc5)c4)c(C)c3O)n[nH]c2C)cc1` [CBK265006], for which the “% of control remaining” value was determined as 117.312%.

Take `CCC(CC)C(=O)N(C)c1c(C)nc2ccc(C(=O)NCCc3c[nH]c4ccccc34)cn12` [CBK146495]: the “% of control remaining” value is given as 165.764%.

With `Brc1cccc(NN=C2CCCC2)n1` [CBK006748], the “% of control remaining” value came to 130.499%.

On to `Cc1nc(CC(=O)Nc2ccc(N3CCOCC3)cn2)cs1` [CBK305251], for which the “% of control remaining” value amounted to 99.4789%.

Regarding `CN(C)CCCNC(=O)C1CCCN(c2nc3c(-c4ccccc4)csc3c(=O)[nH]2)C1` (stereo not drawn) [CBK215504], the “% of control remaining” value amounted to 155.128%.

Take `O=C(NCCc1ccc(O)cc1)c1ccc2nc[nH]c2c1` [CBK153323]: the “% of control remaining” value was found to be 103.741%.

Regarding `Cc1ccc(S(=O)(=O)N2CCOCC2)cc1-c1cnc(N)c(-c2ccc(O)cc2)n1` [CBK122519], the “% of control remaining” value is reported as 82.503%.

As to `COc1cccc2cc(C(=O)NCc3c(F)cccc3F)oc12` [CBK149794], the “% of control remaining” value is given as 86.7889%.

`Cc1nn(C)cc1-c1cncn1Cc1cccc(OC(C)C)c1` [CBK281484]: the “% of control remaining” value is recorded as 118.88%.

With `CC(=O)Nc1ccc(Nc2cc(-c3ccc(Cl)cc3)ncn2)cc1` [CBK090720], the “% of control remaining” value worked out at 104.008%.

Regarding `O=C(C1CC1)N1CC2CN(Cc3ccccc3)CC2C12CCOCC2` (stereo not drawn) [CBK283055], the “% of control remaining” value is 123.553%.

With `Cc1cccc(-c2ncc(NC(=O)CCOc3ccccc3)nc2-c2ccc(N)cc2)c1` [CBK036655], the “% of control remaining” value came out at 90.3182%.

Take `Cc1csc(-c2cnc(N3CCOCC3)c3nccn23)c1` [CBK091287]: the “% of control remaining” value came to 188.515%.

Regarding `Oc1c(-c2cccc(C(F)(F)F)c2)cnc2cccnc12` [CBK081290], the “% of control remaining” value is on record as 105.392%.

On to `O=C(c1cccnc1)N1CCN(S(=O)(=O)c2ccc(F)cc2)CC1` [CBK264210], for which the “% of control remaining” value turned out to be 126.168%.

As to `O=C(Nc1ccc(Cl)cc1)Nc1cccc(C(=O)O)c1` [CBK269404], the “% of control remaining” value is listed as 98.8959%.

Turning to `COc1ccccc1Cc1cccc(C2CCN(C(=O)c3ccccc3)CC2)n1` [CBK286236], the “% of control remaining” value stood at 99.5331%.

As to `O=C(N[C@H]1CCN2C(=O)c3cc(-c4ccccc4F)ccc3NC(=O)[C@H]12)c1cnccn1` [CBK289274], the “% of control remaining” value was determined as 125.381%.

As to `O=C(Nn1cnnc1)c1ccccc1F` [CBK027603], the “% of control remaining” value is 149.104%.

On to `OCC1OC(n2cnc3c(Oc4ccccc4)ncnc32)CC1O` (stereo not drawn) [CBK201181], for which the “% of control remaining” value was 147.217%.

As for `CC(C)(C)OC(=O)N1CCCN(Cc2nc(-c3cccnc3)no2)CC1` [CBK305309], the “% of control remaining” value came out at 81.8007%.

`O=C(O)c1cccc(NS(=O)(=O)c2ccc(OC(F)(F)F)cc2)c1` [CBK155077]: the “% of control remaining” value was 98.3193%.

As for `CC1=NN(c2ccc(C)cc2)C(=O)/C1=C\Nc1ccc(S(=O)(=O)Nc2nc(C)cc(C)n2)cc1` [CBK262398], the “% of control remaining” value is listed as 13.5862%.

Consider `CCN1CCN(c2ccc(NS(=O)(=O)c3ccccc3)c3ccccc23)CC1` [CBK200011C], for which the “% of control remaining” value was determined as 116.387%.

As for `CC(=O)Nc1ccc(S(=O)(=O)Nc2ccc(C(=O)Nc3ccc(F)cc3)cc2)cc1` [CBK050401], the “% of control remaining” value stood at 13.9373%.

As to `CCN(CC)C(=O)C1CCCN(C(=O)NCc2ccc(C#N)cc2)C1` (stereo not drawn) [CBK156132], the “% of control remaining” value was found to be 103.294%.

Consider `COc1ccc2cc(C(=O)NCCCc3ccccn3)n(C)c2c1` [CBK282545], for which the “% of control remaining” value came to 118.91%.

On to `O=C1c2ccccc2C(=O)N1CCOc1nccnc1-c1ccsc1` [CBK106760], for which the “% of control remaining” value was 116.515%.

Turning to `Clc1ccc(CSc2cccs2)cn1` [CBK002639], the “% of control remaining” value is recorded as 110.454%.

`COc1ccccc1CN(CCCn1ccnc1)Cc1ccco1` [CBK283116]: the “% of control remaining” value is 115.3%.

For `CCN(CC)CCNc1nc2c(=O)[nH]c(=O)n(C)c2[nH]1` [CBK287918], the “% of control remaining” value is reported as 97.5156%.

On to `CCOc1cc(C)c(C(C)C)cc1S(=O)(=O)NCCN1CCOCC1` [CBK268727], for which the “% of control remaining” value stood at 152.291%.

Consider `COc1cc2c(cc1OC)C(CCN1CCN(c3ccc(Cl)cc3)CC1)OCC(C)(C)C2` (stereo not drawn) [CBK024051C], for which the “% of control remaining” value was determined as 128.773%.

Turning to `CC1(C)CC(=O)c2sc(NC(=O)c3ccccc3)nc2C1` [CBK287318], the “% of control remaining” value is on record as 124.586%.

For `COc1ccc(CN2CC[C@@H]3[C@H](C2)[C@@H](c2ccc(F)cc2)CN3C(=O)c2ccccc2)cc1` [CBK286290], the “% of control remaining” value is given as 67.7471%.

As for `C1=NC2C(COCc3ccccc3)CCC2N1c1ccccc1` (stereo not drawn) [CBK010679], the “% of control remaining” value is reported as 113.638%.

On to `COc1ccc2cc(CNc3ccc(F)c([N+](=O)[O-])c3)c(Cl)nc2c1` [CBK295133], for which the “% of control remaining” value worked out at 164.126%.

For the compound `O=C(O)c1cc(-c2ccc3c(c2)OCCO3)nc2ccccc12` [CBK262422], the “% of control remaining” value worked out at 120.273%.

`CCCCN(C)C(=O)Cn1nc(C)c2ccccc2c1=O` [CBK305050]: the “% of control remaining” value is recorded as 109.878%.

On to `Fc1ccccc1CSc1nc2ncccc2[nH]1` [CBK287883], for which the “% of control remaining” value is on record as 103.231%.

In the case of `Cn1nc(C(C)(C)C)cc1C(=O)N1CCNC(=O)C1Cc1ccc(-c2cccs2)cc1` (stereo not drawn) [CBK285810], the “% of control remaining” value was 133.649%.

Turning to `COc1ccccc1NC(=O)CSc1nnc(-c2ccncc2)o1` [CBK287743], the “% of control remaining” value is given as 140.019%.

As for `CCC(CO)NC(=O)c1cnc(-c2cccc(C)c2)c(-c2ccc(OC)cc2)c1` (stereo not drawn) [CBK037460], the “% of control remaining” value stood at 177.777%.

In the case of `Cc1[nH]c2ccccc2c1/C=C1/SC(=S)N(CC(=O)O)C1=O` [CBK262220], the “% of control remaining” value came out at 100%.

As for `O=C(Nc1ccccc1C(=O)O)c1cccc(-n2cnnc2)c1` [CBK269769], the “% of control remaining” value was determined as 120.149%.

Take `CC(=O)Nc1ccc(NC(=O)C2COc3ccccc3O2)cc1C` (stereo not drawn) [CBK269898]: the “% of control remaining” value worked out at 105.085%.

Regarding `COc1ccc(C)cc1S(=O)(=O)N(C)CC(=O)O` [CBK267863], the “% of control remaining” value is 133.741%.

Consider `Cc1nccn1CCCn1cncc1-c1ccc2c(c1)CCCN2C` [CBK282962], for which the “% of control remaining” value is on record as 104.744%.

Regarding `CN(C)CCNc1nccc2sc(S(=O)(=O)NCCC3=CCCCC3)cc12` [CBK038244C], the “% of control remaining” value was 117.245%.

For the compound `COc1cc(C2c3c(oc4ccc(Cl)cc4c3=O)C(=O)N2CC2CCCO2)ccc1OCc1ccccc1` (stereo not drawn) [CBK267581], the “% of control remaining” value is 131.293%.

Take `CC(C)c1ccc(S(=O)(=O)N(C)Cc2cccnc2)cc1` [CBK043582]: the “% of control remaining” value stood at 83.6089%.

In the case of `O=S(=O)(c1ccccc1)c1cn2ccnc2c(N2CCNCC2)n1` [CBK200021T], the “% of control remaining” value worked out at 90.9431%.

Regarding `CC(=O)Nc1ccc(C(=O)N2CCC(c3cccc(Cc4ccccc4Cl)n3)CC2)cc1` [CBK286111], the “% of control remaining” value worked out at 121.293%.

Consider `O=C1CCN(Cc2ccccc2)CCN1Cc1cccc(F)c1` [CBK284466], for which the “% of control remaining” value turned out to be 137.695%.

Regarding `CCC(=O)NC(NC(=S)Nc1cccc2cccnc12)C(Cl)(Cl)Cl` (stereo not drawn) [CBK261027], the “% of control remaining” value was 100%.
